Patent US6806079

How the values were obtained:
Experiment in all cases: phage ELISA
cytochrome C = biological target: cytochrome C
thyroglobulin = biological target: thyroglobulin
[1] = biological target: GAP-DH (glyceraldehyde-3-phosphate dehydrogenase)
[2] = biological target: keyhole limpet haemocyanin (keyhole limpet)
trypsin inhibitor = biological target: trypsin inhibitor

B1: Lysozyme binder VH13.1 / VL13.1 (scFv, V domains shown)
VH: QVQLVQSGAEVKKPGQSLMISCQGSGYSFSNYWIGWVRQMPGKGLEWMGIIYPGDSDTRYSPSFQGQVTISADKSISTAYLHWSSLKASDTALYYCARLVGGTPAYWGQGT
VL: HVILTQPASVSGSPGQSITISCTGSSRDVGGYNYVSWYQHHPGKAPKLLISEVTNRPSGVSNRFSGSKSGNTASLTISGLQAEDEADYFCASYTSSKTYVFGG
Cytochrome C
  binding: no binding (tested: 100 ug/ml for coating)
thyroglobulin
  binding: no binding (tested: 100 ug/ml for coating)
[1]
  binding: no binding (tested: 100 ug/ml for coating)
[2]
  binding: no binding (tested: 100 ug/ml for coating)
Trypsin inhibitor
  binding: no binding (tested: 100 ug/ml for coating)

B2: Lysozyme binder VH14.1 / VL14.1 (scFv, V domains shown)
VH: QVQLQESGPGLVKPSETLSLVCTVSGGSLSFSYWGWIRQPPGKGLEWIGYISHRGTDYNSSLQSRVTISADTSKNQFSLKLSSVTAADTAVYYCARSFSNSFFFGYWGQGT
VL: SSELTQDPAVSVAFGQTVRITCQGDSLRSSYASWYQQKPGQAPLLVIYGENSRPSGIPDRFSGSSSGNTASLTITGAQAEDEADYYCNSRDSRGTHLEVFGG
notes: Human scFv in pHEN1 on phage; Paired by common number
Cytochrome C
  binding: no binding (tested: 100 ug/ml for coating)
thyroglobulin
  binding: no binding (tested: 100 ug/ml for coating)
[1]
  binding: no binding (tested: 100 ug/ml for coating)
[2]
  binding: no binding (tested: 100 ug/ml for coating)
Trypsin inhibitor
  binding: no binding (tested: 100 ug/ml for coating)

Results are given in words; binding and its absence hold for the method and conditions named.
